Measurements reported in PubChem BioAssay AID652272 (Drosophila RNAi Screening Center, 2013).
The deposit covers about 21,000 reagents; shown is an unselected part of those that have a named target and a result. In the full data, 503 (2.4%) got an active call. 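Raw plate light values, not normalised; calls rest on replicate z-scores that were not deposited; hits include reporter decreases as well as increases.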 The numbers tell different reagents against one gene apart. Names joined by + are all predicted targets of the reagent. Reagent sequences are not shown. Not given: the amount of reagent, the time to read-out.

Assay: 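Genome-wide knock-down search for components of Hedgehog signalling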 (primary screen)
Cell system: Drosophila clone 8 (Cl8) cells
Reagents: long dsRNA against Drosophila genes
Read-out: 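Plate reader light from a firefly reporter under a ptc promoter fragment that responds to Hedgehog, with Renilla light as transfection reference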
Scale: firefly Hh reporter signal: higher = more ptc reporter light; Renilla reference signal: higher = more Renilla control light
Rule for the call: 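Called a hit if the two-replicate mean z-score lies below -2 or above +3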
Meaning of the calls: active = hit: reporter lowered or raised; inactive = not a hit

target gene	reagent	firefly Hh reporter signal, replicate 1	firefly Hh reporter signal, replicate 2	firefly Hh reporter signal, replicate 3	Renilla reference signal, replicate 1	Renilla reference signal, replicate 2	call
CSN3	1	98569	97072		3396	2580	inactive
CG32576	1	5.03e5	2.78e5		30256	6162	inactive
CalpA	1	89914	57891		2416	4176	inactive
CG5265	1	61484	83409		1249	5914	inactive
CG10286	1	75417	51245		2826	1693	inactive
CG7889	1	1.79e5	1.39e5		4113	2982	inactive
Nup107	1	68732	26605		2224	2883	inactive
Glut3	1	88563	90227		3174	2589	inactive
Cpr72Ec	1	1.15e5	78041		4378	2680	inactive
CG8534	1	1.75e5	2.16e5		3898	6193	inactive
l(2)37Cd	1	98251	79604		4240	3264	inactive
mthl6	1	65991	52050		7364	3752	inactive
koko + Vti1b	1	1.25e5	1.35e5		4890	5130	inactive
koko + Vti1b	2	4.84e5	99184		26640	3016	inactive
CG10376	1	59227	28776		2988	1476	inactive
asRNA:CR42743 + CG34162	1	5.90e5	1.77e5		28404	8960	inactive
oaf	1	87954	80756		1948	1702	inactive
CG10333	1	68482	52921		3453	2613	inactive
Adgf-E	1	86469	42072		2230	3345	inactive
CG14818	1	4.58e5	1.45e5		11824	4784	inactive
nbs	1	21600	43229	50839	4802	3414	inactive
CG15385	1	1.04e5	82243		2912	1952	inactive
ken	1	25067	17312		1829	1024	active
t	1	1.09e5	1.64e5		3427	7048	inactive
CG30148	1	5.58e5	1.07e5		4612	4612	inactive
SmD2	1	84941	62347		4178	3056	inactive
ppk12	1	84544	66179		970	4996	inactive
holn1	1	1.59e5	1.13e5		5802	4842	inactive
RnrL	1	80756	66200		3619	2711	inactive
CG8314	1	72582	84477		4134	3545	inactive
not	1	1.06e5	44848		3952	1795	inactive
Atg4b	1	1.51e5	1.31e5		6203	4784	inactive
Traf6	1	1.35e5	2.85e5		5280	10281	inactive
CG13502	1	88012	44930		2432	4457	inactive
CG32086	1	97521	42474	44179	4771	2935	inactive
CG17294	1	1.02e5	1.26e5		3780	3148	inactive
Pgant6	1	1.52e5	92652		6136	3667	inactive
CG14535	1	84544	50006		2325	4988	inactive
mfrn	1	1.05e5	1.11e5		3968	3318	inactive
Alg11	1	1.57e5	1.77e5		5597	6388	inactive
CG43149	1	1.51e5	2.75e5		3139	9380	inactive
CG12912	1	13835	4504		592	828	active
CG14598	1	56806	1.21e5		2364	3808	inactive
Dpy-30L2	1	85085	63456		2710	4520	inactive
Dysb	1	1.22e5			1792	2615	inactive
Cpr57A + Obp57d	1	86749	49248		3968	1840	inactive
Dpck	1	87094	84810		3370	2683	inactive
ACXE	1	1.16e5	44192		2998	3881	inactive
CG14810	1	3.64e5	97392		21059	2726	inactive
CG14810	2	88512	2.12e5		2585	7522	inactive
RpL18A	1	21368	17079		1258	2198	active
obst-F	1	99044	97520		3025	2930	inactive
Sry-delta	1	85690	54524		1786	1706	inactive
Slu7	1	93367	49643		4746	2093	inactive
Kank	1	1.87e5	3.00e5		5204	12502	inactive
Kank	2	1.66e5	68476		5207	2113	inactive
CG8064	1	1.13e5	68544		4880	3376	inactive

Reprinted from the listing, 9 entries:
target gene	reagent	firefly Hh reporter signal, replicate 1	firefly Hh reporter signal, replicate 2	firefly Hh reporter signal, replicate 3	Renilla reference signal, replicate 1	Renilla reference signal, replicate 2	call
l(2)37Cd	1	98251	79604		4240	3264	inactive
mthl6	1	65991	52050		7364	3752	inactive
koko + Vti1b	1	1.25e5	1.35e5		4890	5130	inactive
koko + Vti1b	2	4.84e5	99184		26640	3016	inactive
CG10376	1	59227	28776		2988	1476	inactive
asRNA:CR42743 + CG34162	1	5.90e5	1.77e5		28404	8960	inactive
oaf	1	87954	80756		1948	1702	inactive
CG10333	1	68482	52921		3453	2613	inactive
Adgf-E	1	86469	42072		2230	3345	inactive
